Measurements taken from PubChem BioAssay AID2685 (National Center for Advancing Translational Sciences (NCATS), 2010).
The other results are listed elsewhere or left out. Further columns of the screen follow, without active or inactive calls. Compounds called inactive in the main read-out are mostly missing here. Words in brackets tell the shape of the fitted curve; partial curves, single points and poor fits give uncertain potencies.

Test: qHTS Assay for Lipid Storage Modulators in Drosophila S3 Cells;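 on cell number change: cells counted by Cell Tracker Red CMTPX staining in the red channel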
Settings: BODIPY lipid droplet fluorescence, 18-24 h; for cell number change: measured here: cell count max response, cells fed with added oleic acid
Procedure, shortened: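 Laser-scanning cytometry quantifies lipid droplet accumulation (500–530 nm total intensity; droplet/cell object ratio) in oleic acid-fed (400 uM added) Drosophila S3 cells treated with a concentration series. 20 uM Triacsin C defined 100% inhibition.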

[1] = measured here: cell number channel AC50, cells fed with added oleic acid
[2] = measured here: lipid fluorescence (Fed channel) AC50, cells fed with added oleic acid

Row | Compound | cell number change [%] | AC50 [1] | AC50 [2]
1 | Clc1ccc(-n2ncc3c(NCc4ccco4)ncnc32)cc1 | -11.9 | 0.00517 µM [falling, full curve, poor fit] | 
2 | Cc1ccccc1N=C1NC(=O)CC(c2ccccc2)S1 (stereo unspecified) | 48 | 8.2 µM [rising, partial curve] | 0.651 µM [rising, single point]
3 | CCOC(=O)c1c(C)[nH]c(C)c1C(=O)CSc1nc2ccccc2c(=O)n1-c1ccc(CC)cc1 | 24.9 | 4.11 µM [rising, full curve, poor fit] | 29.1 µM [rising, single point]
4 | C/C(=N\OCC(=O)Nn1c(C)nc2ccccc2c1=O)c1ccccc1 |  | 0.231 µM [falling, full curve, poor fit] | 29.1 µM [falling, single point]
5 | CC1(C)Cc2nc3sc4c(=O)n(Cc5ccccc5)cnc4c3cc2CS1 | -1.84 |  | 0.411 µM [rising, partial curve]
6 | CC(NC(=O)CNC(=O)c1ccccc1Br)c1cccs1 (stereo unspecified) | 17.7 |  | 
7 | O=C(CN1CCCCC1)Nc1ccccc1 | -24.4 |  | 0.103 µM [falling, full curve, poor fit]
8 | C/C(=N\NS(=O)(=O)c1c(C)cc(C)cc1C)c1ccncc1 | 18.5 |  | 32.6 µM [rising, partial curve, poor fit]
9 | COc1ccc(N2CC(C(=O)Nc3cc(C(F)(F)F)ccc3N3CCCC3)CC2=O)c(OC)c1 (stereo unspecified) | -33 |  | 
10 | CCOc1ccc(CCNC(=O)CN2C(=O)CCSc3ccccc32)cc1 | 11.9 |  | 0.00461 µM [falling, full curve, poor fit]
11 | O=C(O)c1ccc(S(=O)(=O)N2CCC(c3nc(-c4ccccc4Cl)no3)CC2)cc1 | 34.9 | 5.17 µM [rising, full curve, poor fit] | 
12 | CCOC(=O)/C(=N\Nc1cc(Cl)ccc1Cl)N1CCN(C)CC1 | 9.49 |  | 0.411 µM [rising, full curve]
13 | O=C1[C@@H]2CSCN2C(=O)CN1Cc1ccc(F)cc1 | -36 | 29.1 µM [falling, single point] | 29.1 µM [falling, single point]
14 | COc1ccc(Cc2nnc(N/N=C/c3ccc(O)cc3)[nH]c2=O)cc1OC | 6.91 |  | 0.164 µM [rising, full curve, poor fit]
15 | COc1cc(C=Nc2cccc([N+](=O)[O-])c2C)ccc1OC(C)=O | -9.17 |  | 29.1 µM [rising, partial curve, poor fit]
16 | CC(C)c1ccc(N2C(=O)CSC23C(=O)N2CCCc4cccc3c42)cc1 (stereo unspecified) |  |  | 1.84 µM [rising, partial curve]
17 | Cc1cccc(NC(=O)c2cc([N+](=O)[O-])ccc2N2CCCCC2)n1 | 12.5 | 6.51 µM [rising, single point] | 
18 | CCCCCNC(=O)c1ccc2c(=O)[nH]c3c(C(=O)NCC4CCCO4)sc(=S)n3c2c1 (stereo unspecified) |  |  | 0.517 µM [rising, single point]
19 | Cc1ccc(NC(=O)c2cnccn2)nc1 | 16.8 |  | 
20 | COC(=O)C(N)Cc1ccc(Cl)cc1 (stereo unspecified) | -27.5 | 1.84 µM [falling, full curve, poor fit] | 2.06 µM [falling, full curve]

Row | Compound | cell number change [%] | AC50 [1] | AC50 [2]
21 | O=C(C1CCCN(S(=O)(=O)c2ccc(Br)s2)C1)N1CCCCCC1 (stereo unspecified) |  |  | 29.1 µM [rising, single point]
22 | COc1ccc(-c2csc(N(CC3CCCO3)C(=O)c3ccccc3)n2)cc1 (stereo unspecified) |  | 6.51 µM [rising, single point] | 1.03 µM [rising, partial curve]
23 | Cc1cc(N2CCCCC2)nc(SCc2ccc(C#N)cc2)n1 | -26 |  | 32.6 µM [falling, single point]
24 | Cc1ccc(-n2ncc3c2CCCC3NC(=O)CSc2ccccn2)cc1C (stereo unspecified) | -64 | 31.6 µM [falling, single point] | 25.1 µM [falling, single point]
25 | CC1CCCN(Cc2nc3c(c(=O)n(C)c(=O)n3C)n2Cc2c(F)cccc2Cl)C1 (stereo unspecified) |  | 0.164 µM [rising, full curve, poor fit] | 
26 | Cc1c(NS(=O)(=O)c2ccc(N=NN(C)C)cc2)c(=O)n(-c2ccccc2)n1C | 39.5 | 6.51 µM [rising, full curve, poor fit] | 14.6 µM [rising, partial curve]
27 | CC(C)(C)c1ccc(OCC(O)CN2CCN(C(=O)c3ccccc3)CC2)cc1 (stereo unspecified) | -37 | 23.1 µM [falling, single point] | 11.6 µM [falling, single point]
28 | CSc1nc2c(c(=O)[nH]1)C(c1cccc(Br)c1)CC(=O)N2 (stereo unspecified) | 2.99 | 0.092 µM [falling, full curve, poor fit] | 
29 | CC1CCN(C(=O)c2ccc(S(=O)(=O)Cc3cc(F)ccc3F)c([N+](=O)[O-])c2)CC1 | -3.27 |  | 2.06 µM [falling, partial curve]
30 | COC(=O)[C@H](C)NC(=O)COc1ccccc1 | -6.47 |  | 32.6 µM [falling, single point]
31 | COc1ccc(C(=O)N/N=C/c2ccc(OC)c(OS(=O)(=O)c3ccccc3)c2)cc1 | 17.8 | 0.82 µM [rising, full curve, poor fit] | 1.3 µM [rising, full curve]
32 | CCOC(=O)c1c(S(=O)(=O)N(C)Cc2ccccc2)c(C)n(C)c1C | -6.92 |  | 
33 | CCOc1ccc(Nc2nc(Cc3nnc(SCC(=O)NCC4CCCO4)n3C)cs2)cc1 (stereo unspecified) | 10.6 |  | 
34 | Cc1ccc(C)c2[nH]c(=O)c(CN(CCN3CCCC3)C(=O)Nc3ccc(F)cc3)cc12 | -6.85 |  | 
35 | N/C(=N\OC(=O)COc1ccccc1)c1cccnc1 | -4.9 |  | 
36 | COc1ccccc1CNC(=O)CCCn1nc(C)c2c(C)n(-c3ccc(C)cc3)nc2c1=O |  |  | 1.16 µM [rising, partial curve, poor fit]
37 | O=S(=O)(NCCC1=CCCCC1)c1ccc(F)cc1 | -5.45 |  | 0.651 µM [rising, partial curve, poor fit]
38 | O=C(Cc1c(F)cccc1Cl)Nc1nccs1 | -5.56 |  | 29.1 µM [rising, single point]
39 | CCOc1cc(C(=O)N=c2sccn2C)ccc1OC(F)F |  |  | 13 µM [falling, partial curve]
40 | C[C@H](C(=O)O)c1n[nH]c(=O)c2ccccc12 | -13.6 |  | 4.11 µM [falling, full curve, poor fit]

12 entries from above, tab-delimited:
Row	Compound	cell number change [%]	AC50 [1]	AC50 [2]
29	CC1CCN(C(=O)c2ccc(S(=O)(=O)Cc3cc(F)ccc3F)c([N+](=O)[O-])c2)CC1	-3.27		2.06 µM [falling, partial curve]
30	COC(=O)[C@H](C)NC(=O)COc1ccccc1	-6.47		32.6 µM [falling, single point]
31	COc1ccc(C(=O)N/N=C/c2ccc(OC)c(OS(=O)(=O)c3ccccc3)c2)cc1	17.8	0.82 µM [rising, full curve, poor fit]	1.3 µM [rising, full curve]
32	CCOC(=O)c1c(S(=O)(=O)N(C)Cc2ccccc2)c(C)n(C)c1C	-6.92		
33	CCOc1ccc(Nc2nc(Cc3nnc(SCC(=O)NCC4CCCO4)n3C)cs2)cc1 (stereo unspecified)	10.6		
34	Cc1ccc(C)c2[nH]c(=O)c(CN(CCN3CCCC3)C(=O)Nc3ccc(F)cc3)cc12	-6.85		
35	N/C(=N\OC(=O)COc1ccccc1)c1cccnc1	-4.9		
36	COc1ccccc1CNC(=O)CCCn1nc(C)c2c(C)n(-c3ccc(C)cc3)nc2c1=O			1.16 µM [rising, partial curve, poor fit]
37	O=S(=O)(NCCC1=CCCCC1)c1ccc(F)cc1	-5.45		0.651 µM [rising, partial curve, poor fit]
38	O=C(Cc1c(F)cccc1Cl)Nc1nccs1	-5.56		29.1 µM [rising, single point]
39	CCOc1cc(C(=O)N=c2sccn2C)ccc1OC(F)F			13 µM [falling, partial curve]
40	C[C@H](C(=O)O)c1n[nH]c(=O)c2ccccc12	-13.6		4.11 µM [falling, full curve, poor fit]

Further records.

Row | Compound | cell number change [%] | AC50 [1] | AC50 [2]
41 | CN(CCc1ccccc1)Cc1nc(-c2cnccn2)no1 | 10.9 |  | 29.1 µM [rising, single point]
42 | O=C(Nc1ccccc1-c1ccccc1)c1cnccn1 | 38.7 | 32.6 µM [rising, partial curve, poor fit] | 
43 | O=C(O)C1=C(OCc2ccc(F)c(F)c2)C(=O)NCC1 | 16.3 |  | 
44 | CC(C)OC(=O)CCC(=O)Nc1nc2ccccc2s1 | -19.3 |  | 29.1 µM [rising, single point]
45 | CCc1ccccc1NC(=O)c1ccoc1C |  | 2.31 µM [rising, partial curve] | 0.116 µM [rising, full curve, poor fit]
46 | O=C(Nc1cc2cccc([N+](=O)[O-])c2oc1=O)c1cccs1 | 99.2 | 18.4 µM [rising, single point] | 
47 | O=C(N/N=C/c1ccc[nH]1)c1cccnc1 | 38.7 | 0.411 µM [rising, full curve] | 0.82 µM [rising, full curve]
48 | COc1ccccc1-n1nnnc1SCC(=O)NCC1(N2CCOCC2)CCCCC1 | -2.84 |  | 6.51 µM [falling, single point]
49 | COc1ccc(C)cc1NC(=O)c1cc2c(CO)cnc(C)c2oc1=N | 3.37 |  | 9.2 µM [rising, partial curve]
50 | Cc1ccc(S(=O)(=O)/N=C2/NC(=O)/C(=C\c3cc(Br)cc(Br)c3O)S2)cc1 | -56.7 | 6.51 µM [falling, single point] | 5.8 µM [falling, full curve]
51 | Cc1ccc(-c2nc3sc4c(c3c(=O)n2N)CCCC4)cc1 | 102 | 2.91 µM [rising, partial curve] | 0.82 µM [rising, partial curve]
52 | CN(Cc1cnn(Cc2ccccc2)c1)C(=O)CN=C1NS(=O)(=O)c2ccccc21 | 10.6 |  | 0.82 µM [rising, full curve, poor fit]
53 | O=[N+]([O-])c1cc(C(F)(F)F)ccc1SCC(O)CO (stereo unspecified) |  | 0.00461 µM [falling, full curve, poor fit] | 
54 | CC(NS(=O)(=O)c1cccc(Cl)c1)C(=O)Nc1ccc(-c2nc3ccccc3s2)cc1 (stereo unspecified) | -44.2 | 29.1 µM [falling, single point] | 2.06 µM [rising, partial curve]
55 | CC1(C)CC(=O)C(C=NC2CC(C)(C)NC(C)(C)C2)=C(O)C1 | 0.79 |  | 1.3 µM [falling, full curve]
56 | Cc1ccc(N2C(=O)N3[C@H](c4ccc(Br)cc4)[C@@H]4C(=O)N(C(C)(C)C)C(=O)[C@@H]4[C@]3(C)C2=O)cc1 | -12.9 |  | 
57 | Cc1ccccc1CN1C(=O)CS/C1=N/N=C/c1ccco1 | -5.35 |  | 0.0058 µM [falling, full curve, poor fit]
58 | O=C(NC1CCCCC1)c1ccc(CS(=O)(=O)c2ccc(Cl)cc2)o1 |  |  | 16.4 µM [falling, partial curve, poor fit]

A second format for part of the listing above:
O=[N+]([O-])c1cc(C(F)(F)F)ccc1SCC(O)CO (stereo unspecified)
  AC50 [1]: 0.00461 µM [falling, full curve, poor fit]
CC(NS(=O)(=O)c1cccc(Cl)c1)C(=O)Nc1ccc(-c2nc3ccccc3s2)cc1 (stereo unspecified)
  cell number change [%]: -44.2; AC50 [1]: 29.1 µM [falling, single point]; AC50 [2]: 2.06 µM [rising, partial curve]
